What all share (settings): whole synthesis, HPLC (gradient A)
The nature of series [1]: general procedure: Fmoc solid-phase peptide synthesis; (EA)G-O chlorotritylresin.
The nature of series [2]: general procedure: Fmoc solid-phase peptide synthesis; 2-chlorotrityl polystyrene resin, preloaded: (EA)G-O-, (BA)G-O-, (PrA)G-O-chlorotritylresin.
A short description of series [3]: general procedure: Fmoc solid-phase peptide synthesis; (EA)G-O-chlorotritylresin.

The record followed here is US7855179 (dated 2010).

Strings that start with PEPTIDE1 are HELM notation: dots part the residues, brackets hold end groups and non-standard residues.

As to “PEPTIDE1{L.R.L.[hArg].[hArg].[EGUG].R.W.[hArg].Y.R.V.[dP].P}$PEPTIDE1,PEPTIDE1,1:R1-14:R2$$$V2.0”, the “final HPLC purity” value in series [1] worked out at 40%.

As for “PEPTIDE1{R.W.L.Q.K.R.[PeAG].W.K.Y.Y.R.[dP].P}$PEPTIDE1,PEPTIDE1,1:R1-14:R2$$$V2.0”, in series [2], the “final HPLC purity” value came to 100%. As for “PEPTIDE1{L.R.L.K.K.[EAG].R.W.K.Y.R.V.[dP].P}$PEPTIDE1,PEPTIDE1,1:R1-14:R2$$$V2.0”, in series [3], the “final HPLC purity” value worked out at 68%. Consider “PEPTIDE1{R.W.L.Q.[PeAG].R.R.W.K.Y.Y.R.[dP].P}$PEPTIDE1,PEPTIDE1,1:R1-14:R2$$$V2.0”, for which the “final HPLC purity” value in series [2] is given as 100%. As for “PEPTIDE1{L.R.L.K.K.[BAG].R.[Bip].K.Y.R.V.[dP].P}$PEPTIDE1,PEPTIDE1,1:R1-14:R2$$$V2.0”, the “final HPLC purity” value in series [2] is recorded as 63%. Still for that read-out and setting: then “PEPTIDE1{T.W.L.K.[PeAG].R.R.W.K.Y.Y.R.[dP].P}$PEPTIDE1,PEPTIDE1,1:R1-14:R2$$$V2.0 [12]”, with 70%.

For “PEPTIDE1{R.W.L.K.[PeAG].R.R.W.K.Y.Y.V.[dP].P}$PEPTIDE1,PEPTIDE1,1:R1-14:R2$$$V2.0”, in series [2], the “final HPLC purity” value is 100%.
